Among the data in PMC5886296 are binding values, retold here.

For the assay, the target named is T1, DNAAF1 fused to the GAL4 DNA-binding domain (pBD-DNAAF1) (human) (UniProt Q8NEP3).
T1 sequence: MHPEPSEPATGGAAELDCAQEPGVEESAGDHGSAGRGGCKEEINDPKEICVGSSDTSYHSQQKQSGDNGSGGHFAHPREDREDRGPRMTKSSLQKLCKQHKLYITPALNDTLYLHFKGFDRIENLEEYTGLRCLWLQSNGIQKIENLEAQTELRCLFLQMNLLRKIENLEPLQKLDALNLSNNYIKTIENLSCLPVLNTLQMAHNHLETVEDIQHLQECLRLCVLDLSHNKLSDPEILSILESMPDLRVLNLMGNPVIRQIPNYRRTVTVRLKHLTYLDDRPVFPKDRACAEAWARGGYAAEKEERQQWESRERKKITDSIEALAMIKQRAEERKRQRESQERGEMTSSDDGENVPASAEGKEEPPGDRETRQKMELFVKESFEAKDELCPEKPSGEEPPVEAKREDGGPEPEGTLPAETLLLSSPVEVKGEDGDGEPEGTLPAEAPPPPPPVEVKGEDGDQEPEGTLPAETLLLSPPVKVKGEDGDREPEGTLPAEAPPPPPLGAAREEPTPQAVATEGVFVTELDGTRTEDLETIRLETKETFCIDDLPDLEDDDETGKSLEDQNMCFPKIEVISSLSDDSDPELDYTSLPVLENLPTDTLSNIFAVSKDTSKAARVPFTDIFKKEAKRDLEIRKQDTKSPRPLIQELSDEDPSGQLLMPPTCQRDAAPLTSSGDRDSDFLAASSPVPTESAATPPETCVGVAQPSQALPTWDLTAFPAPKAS
Briefly: two-hybrid; dedicated one-to-one yeast two-hybrid; DNAAF1-BD against full-length and truncated IFT88.

These are yes or no findings as the source states them, for the method shown. Binding calls can cover weak binding; strength is not graded here. Where a sequence is shown, tags or fusion partners need not be part of it.

“N-terminally truncated IFT88 (442–833) (domain or fragment)”: the binding result is reported as “binds”.

As to “C-terminal truncated IFT88 (1–449) (from UniProt Q13099-2) (domain or fragment)”, the binding result was “no binding”.
